Assay results taken from US9284543B2, “Neutral active soluble truncated PH20 polypeptides and uses thereof” (Halozyme, Inc., priority 2008, dated 2016).

B1: SPAM1-GVCI: C-terminally truncated human PH20, precursor 465 aa (SEQ ID NO:35), mature 430 aa (SEQ ID NO:87) (protein, listed as Homo sapiens)
chain 1: MGVLKFKHIFFRSFVKSSGVSQIVFTFLLIPCCLTLNFRAPPVIPNVPFLWAWNAPSEFCLGKFDEPLDMSLFSFIGSPRINATGQGVTIFYVDRLGYYPYIDSITGVTVNGGIPQKISLQDHLDKAKKDITFYMPVDNLGMAVIDWEEWRPTWARNWKPKDVYKNRSIELVQQQNVQLSLTEATEKAKQEFEKAGKDFLVETIKLGKLLRPNHLWGYYLFPDCYNHHYKKPGYNGSCFNVEIKRNDDLSWLWNESTALYPSIYLNTQQSPVAATLYVRNRVREAIRVSKIPDAKSPLPVFAYTRIVFTDQVLKFLSQDELVYTFGETVALGASGIVIWGTLSIMRSMKSCLLLDNYMETILNPYIINVTLAAKMCSQVLCQEQGVCIRKNWNSSDYLHLNPDNFAIQLEKGGKFTVRGKPTLEDLEQFSEKFYCSCYSTLSCKEKADVKDTDAVDVCIADGVCI
chain 2: LNFRAPPVIPNVPFLWAWNAPSEFCLGKFDEPLDMSLFSFIGSPRINATGQGVTIFYVDRLGYYPYIDSITGVTVNGGIPQKISLQDHLDKAKKDITFYMPVDNLGMAVIDWEEWRPTWARNWKPKDVYKNRSIELVQQQNVQLSLTEATEKAKQEFEKAGKDFLVETIKLGKLLRPNHLWGYYLFPDCYNHHYKKPGYNGSCFNVEIKRNDDLSWLWNESTALYPSIYLNTQQSPVAATLYVRNRVREAIRVSKIPDAKSPLPVFAYTRIVFTDQVLKFLSQDELVYTFGETVALGASGIVIWGTLSIMRSMKSCLLLDNYMETILNPYIINVTLAAKMCSQVLCQEQGVCIRKNWNSSDYLHLNPDNFAIQLEKGGKFTVRGKPTLEDLEQFSEKFYCSCYSTLSCKEKADVKDTDAVDVCIADGVCI
modifications: HuPH20 precursor 1-465; Mature HuPH20 36-465
B2: SPAM1-CIDA: C-terminally truncated human PH20, precursor 467 aa (SEQ ID NO:33), mature 432 aa (SEQ ID NO:85) (protein, listed as Homo sapiens)
chain 1: MGVLKFKHIFFRSFVKSSGVSQIVFTFLLIPCCLTLNFRAPPVIPNVPFLWAWNAPSEFCLGKFDEPLDMSLFSFIGSPRINATGQGVTIFYVDRLGYYPYIDSITGVTVNGGIPQKISLQDHLDKAKKDITFYMPVDNLGMAVIDWEEWRPTWARNWKPKDVYKNRSIELVQQQNVQLSLTEATEKAKQEFEKAGKDFLVETIKLGKLLRPNHLWGYYLFPDCYNHHYKKPGYNGSCFNVEIKRNDDLSWLWNESTALYPSIYLNTQQSPVAATLYVRNRVREAIRVSKIPDAKSPLPVFAYTRIVFTDQVLKFLSQDELVYTFGETVALGASGIVIWGTLSIMRSMKSCLLLDNYMETILNPYIINVTLAAKMCSQVLCQEQGVCIRKNWNSSDYLHLNPDNFAIQLEKGGKFTVRGKPTLEDLEQFSEKFYCSCYSTLSCKEKADVKDTDAVDVCIADGVCIDA
chain 2: LNFRAPPVIPNVPFLWAWNAPSEFCLGKFDEPLDMSLFSFIGSPRINATGQGVTIFYVDRLGYYPYIDSITGVTVNGGIPQKISLQDHLDKAKKDITFYMPVDNLGMAVIDWEEWRPTWARNWKPKDVYKNRSIELVQQQNVQLSLTEATEKAKQEFEKAGKDFLVETIKLGKLLRPNHLWGYYLFPDCYNHHYKKPGYNGSCFNVEIKRNDDLSWLWNESTALYPSIYLNTQQSPVAATLYVRNRVREAIRVSKIPDAKSPLPVFAYTRIVFTDQVLKFLSQDELVYTFGETVALGASGIVIWGTLSIMRSMKSCLLLDNYMETILNPYIINVTLAAKMCSQVLCQEQGVCIRKNWNSSDYLHLNPDNFAIQLEKGGKFTVRGKPTLEDLEQFSEKFYCSCYSTLSCKEKADVKDTDAVDVCIADGVCIDA
modifications: HuPH20 precursor 1-467; Mature HuPH20 36-467
B3: SPAM1-IDAF: C-terminally truncated human PH20, precursor 468 aa (SEQ ID NO:32), mature 433 aa (SEQ ID NO:84) (protein, listed as Homo sapiens)
chain 1: MGVLKFKHIFFRSFVKSSGVSQIVFTFLLIPCCLTLNFRAPPVIPNVPFLWAWNAPSEFCLGKFDEPLDMSLFSFIGSPRINATGQGVTIFYVDRLGYYPYIDSITGVTVNGGIPQKISLQDHLDKAKKDITFYMPVDNLGMAVIDWEEWRPTWARNWKPKDVYKNRSIELVQQQNVQLSLTEATEKAKQEFEKAGKDFLVETIKLGKLLRPNHLWGYYLFPDCYNHHYKKPGYNGSCFNVEIKRNDDLSWLWNESTALYPSIYLNTQQSPVAATLYVRNRVREAIRVSKIPDAKSPLPVFAYTRIVFTDQVLKFLSQDELVYTFGETVALGASGIVIWGTLSIMRSMKSCLLLDNYMETILNPYIINVTLAAKMCSQVLCQEQGVCIRKNWNSSDYLHLNPDNFAIQLEKGGKFTVRGKPTLEDLEQFSEKFYCSCYSTLSCKEKADVKDTDAVDVCIADGVCIDAF
chain 2: LNFRAPPVIPNVPFLWAWNAPSEFCLGKFDEPLDMSLFSFIGSPRINATGQGVTIFYVDRLGYYPYIDSITGVTVNGGIPQKISLQDHLDKAKKDITFYMPVDNLGMAVIDWEEWRPTWARNWKPKDVYKNRSIELVQQQNVQLSLTEATEKAKQEFEKAGKDFLVETIKLGKLLRPNHLWGYYLFPDCYNHHYKKPGYNGSCFNVEIKRNDDLSWLWNESTALYPSIYLNTQQSPVAATLYVRNRVREAIRVSKIPDAKSPLPVFAYTRIVFTDQVLKFLSQDELVYTFGETVALGASGIVIWGTLSIMRSMKSCLLLDNYMETILNPYIINVTLAAKMCSQVLCQEQGVCIRKNWNSSDYLHLNPDNFAIQLEKGGKFTVRGKPTLEDLEQFSEKFYCSCYSTLSCKEKADVKDTDAVDVCIADGVCIDAF
modifications: HuPH20 precursor 1-468; Mature HuPH20 36-468
B4: SPAM1-VCID: C-terminally truncated human PH20, precursor 466 aa (SEQ ID NO:34), mature 431 aa (SEQ ID NO:86) (protein, listed as Homo sapiens)
chain 1: MGVLKFKHIFFRSFVKSSGVSQIVFTFLLIPCCLTLNFRAPPVIPNVPFLWAWNAPSEFCLGKFDEPLDMSLFSFIGSPRINATGQGVTIFYVDRLGYYPYIDSITGVTVNGGIPQKISLQDHLDKAKKDITFYMPVDNLGMAVIDWEEWRPTWARNWKPKDVYKNRSIELVQQQNVQLSLTEATEKAKQEFEKAGKDFLVETIKLGKLLRPNHLWGYYLFPDCYNHHYKKPGYNGSCFNVEIKRNDDLSWLWNESTALYPSIYLNTQQSPVAATLYVRNRVREAIRVSKIPDAKSPLPVFAYTRIVFTDQVLKFLSQDELVYTFGETVALGASGIVIWGTLSIMRSMKSCLLLDNYMETILNPYIINVTLAAKMCSQVLCQEQGVCIRKNWNSSDYLHLNPDNFAIQLEKGGKFTVRGKPTLEDLEQFSEKFYCSCYSTLSCKEKADVKDTDAVDVCIADGVCID
chain 2: LNFRAPPVIPNVPFLWAWNAPSEFCLGKFDEPLDMSLFSFIGSPRINATGQGVTIFYVDRLGYYPYIDSITGVTVNGGIPQKISLQDHLDKAKKDITFYMPVDNLGMAVIDWEEWRPTWARNWKPKDVYKNRSIELVQQQNVQLSLTEATEKAKQEFEKAGKDFLVETIKLGKLLRPNHLWGYYLFPDCYNHHYKKPGYNGSCFNVEIKRNDDLSWLWNESTALYPSIYLNTQQSPVAATLYVRNRVREAIRVSKIPDAKSPLPVFAYTRIVFTDQVLKFLSQDELVYTFGETVALGASGIVIWGTLSIMRSMKSCLLLDNYMETILNPYIINVTLAAKMCSQVLCQEQGVCIRKNWNSSDYLHLNPDNFAIQLEKGGKFTVRGKPTLEDLEQFSEKFYCSCYSTLSCKEKADVKDTDAVDVCIADGVCID
modifications: HuPH20 precursor 1-466; Mature HuPH20 36-466
B5: SPAM1-DAFL: C-terminally truncated human PH20, precursor 469 aa (SEQ ID NO:31), mature 434 aa (SEQ ID NO:83) (protein, listed as Homo sapiens)
chain 1: MGVLKFKHIFFRSFVKSSGVSQIVFTFLLIPCCLTLNFRAPPVIPNVPFLWAWNAPSEFCLGKFDEPLDMSLFSFIGSPRINATGQGVTIFYVDRLGYYPYIDSITGVTVNGGIPQKISLQDHLDKAKKDITFYMPVDNLGMAVIDWEEWRPTWARNWKPKDVYKNRSIELVQQQNVQLSLTEATEKAKQEFEKAGKDFLVETIKLGKLLRPNHLWGYYLFPDCYNHHYKKPGYNGSCFNVEIKRNDDLSWLWNESTALYPSIYLNTQQSPVAATLYVRNRVREAIRVSKIPDAKSPLPVFAYTRIVFTDQVLKFLSQDELVYTFGETVALGASGIVIWGTLSIMRSMKSCLLLDNYMETILNPYIINVTLAAKMCSQVLCQEQGVCIRKNWNSSDYLHLNPDNFAIQLEKGGKFTVRGKPTLEDLEQFSEKFYCSCYSTLSCKEKADVKDTDAVDVCIADGVCIDAFL
chain 2: LNFRAPPVIPNVPFLWAWNAPSEFCLGKFDEPLDMSLFSFIGSPRINATGQGVTIFYVDRLGYYPYIDSITGVTVNGGIPQKISLQDHLDKAKKDITFYMPVDNLGMAVIDWEEWRPTWARNWKPKDVYKNRSIELVQQQNVQLSLTEATEKAKQEFEKAGKDFLVETIKLGKLLRPNHLWGYYLFPDCYNHHYKKPGYNGSCFNVEIKRNDDLSWLWNESTALYPSIYLNTQQSPVAATLYVRNRVREAIRVSKIPDAKSPLPVFAYTRIVFTDQVLKFLSQDELVYTFGETVALGASGIVIWGTLSIMRSMKSCLLLDNYMETILNPYIINVTLAAKMCSQVLCQEQGVCIRKNWNSSDYLHLNPDNFAIQLEKGGKFTVRGKPTLEDLEQFSEKFYCSCYSTLSCKEKADVKDTDAVDVCIADGVCIDAFL
modifications: HuPH20 precursor 1-469; Mature HuPH20 36-469

Test system: CHO-S cells
Assay: Western blot analysis of PH20 expression in media and cells after transient expression
Assay type: cell-based, Chinese Hamster
Details: band at approximately 66 kDa
Description: The mutant PH20-HZ24 plasmids generated in Example 1 were transiently […] into CHO—S cells (derived from Chinese Hamster Ovary CHO K1 cells) using GeneJuice® (Novagen) according to the manufacturer's instructions. In short, the CHO—S cells were grown in CD CHO medium supplemented with L-glutamine. Prior to transfection, the CHO—S cells were plated in 6-well plates, with approximately 5×10^5 cells per well, and grown overnight at 37° C. with 5% CO2. The medium was then removed and the CHO—S cells were washed 2 times with 1 mL serum-free medium. GeneJuice® was mixed with serum-free media followed by the addition of 2 μg mutant-HZ24 DNA. After incubating at room temperature for 5-15 minutes, the GeneJuice®/DNA mixture was added dropwise to an individual well containing the washed CHO—S cells. After 4 hours, the medium was replaced with 1 mL CD-CHO medium supplemented with L-glutamine and the cells were incubated for 72 hours at 37° C. with 5% CO2. Following expression, the media and cells were harvested separately.
The mutant PH20-HZ24 plasmids generated in Example 1 were transiently […] into CHO—S cells using GeneJuice® (Novagen) according to the manufacturer's instructions. […]
In this example, following transient expression, as described in Example 2 above, the media and cells were harvested separately and analyzed for PH20 expression and solublility by Western blot analysis. Solubility of the C-terminus truncation mutants was determined by examining whether the expressed protein was present in the growth media or in the cells. […] Cells expressing these mutants were treated with phosphoinositol-phospholipase C (PI-PLC), which cleaves the GPI-anchor allowing the release of soluble protein into the media, and the presence of PH20 in the resulting media and cells was determined by Western blot analysis.
Non-reduced samples were run on a 4-20% Tris-Glycine gel and transferred to PVDF membrane using iBlot (Invitrogen). For the Western blot, rabbit anti-PH20 IgG (0.5 μg/mL) was used as the primary antibody and HRP-conjugated goat anti-rabbit IgG (0.1 ng/mL, Cat#DC03L, EMD) was used as the secondary antibody. Evidence of expression is determined by a band at approximately 66 kDa, corresponding to recombinant human PH20 hyaluronidase.

| Molecule | Protein Expression |
| --- | --- |
| B1 | YES |
| B2 | YES |
| B3 | YES |
| B4 | YES |
| B5 | YES |
